# This is one part of the list.
# Molecular target: T1, OsSMF1 (Oryza sativa, UniProt Q6ZLB0 1-436)
# T1 sequence: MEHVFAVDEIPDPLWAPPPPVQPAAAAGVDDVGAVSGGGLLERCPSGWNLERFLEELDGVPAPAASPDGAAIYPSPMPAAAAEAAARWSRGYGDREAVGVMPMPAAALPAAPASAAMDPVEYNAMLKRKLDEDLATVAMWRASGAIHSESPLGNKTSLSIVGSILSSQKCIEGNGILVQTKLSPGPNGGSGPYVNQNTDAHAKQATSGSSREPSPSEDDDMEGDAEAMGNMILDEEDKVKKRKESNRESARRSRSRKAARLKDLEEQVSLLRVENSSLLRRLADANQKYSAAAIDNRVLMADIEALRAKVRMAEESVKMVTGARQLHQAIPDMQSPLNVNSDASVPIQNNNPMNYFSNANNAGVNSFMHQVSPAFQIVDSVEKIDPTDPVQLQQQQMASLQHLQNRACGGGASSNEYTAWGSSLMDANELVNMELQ
# Assay: protein-binding microarray (RPBM); PBS, 2% BSA, 51.3 ng/ul salmon testes DNA, 50 uM zinc acetate, 200 nM TF, 25 C, 1 h; high values mean tight binding
# Details: protein: recombinant; tags: N-terminal polyhistidine and DsRed monomer fusion (pET32a); chain copies: 2; label: CyDye5-dUTP incorporated in the synthesized complementary strand; 3' TTTTT single-stranded linker to array surface; dsDNA, one strand shown
# Summary of the method: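 An Axon 4000B scanner gave the binding signal as per-feature fluorescence intensity in arbitrary units. This followed washing of a custom Agilent array that had been incubated for 1 h at 25 °C with 200 nM protein in PBS, 2% BSA, salmon testes DNA and 50 µM zinc acetate. The proteins were transcription factors fused at the N-terminus to polyhistidine and DsRed, expressed in E. coli BL21-CodonPlus and purified on Ni–NTA.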
row,Sequence,binding signal
1,AGAACACCATACACGTCCGGCTTCTCATGCGTCCACCGCTCGGAGTCACCTAGTGCAG,3380 fluorescence intensity (a.u.)
2,CATTATAAATAACGTTGAATCCACGCGTTTGTGATGTGGCCGGAGTCACCTAGTGCAG,7800 fluorescence intensity (a.u.)
3,TGGTGGTGGTGGTGGGCCTTCCCGTCGTCGTCTTCGACTTCGGAGTCACCTAGTGCAG,3480 fluorescence intensity (a.u.)
4,GTAGTACTCCAGTACACTGTAATCTAATACTGCTAGAAGTCGGAGTCACCTAGTGCAG,35400 fluorescence intensity (a.u.)
5,AGGTGGGTCCACGTCGCCGACCCGCACCACATGGCCCACGCGGAGTCACCTAGTGCAG,6140 fluorescence intensity (a.u.)
6,TGTAGAGGTCTCATAAACCACCATGACCTTGCTGCTTCACCGGAGTCACCTAGTGCAG,3320 fluorescence intensity (a.u.)
7,TGATTAAACAAAGTGTGCAAGGCGTGTCTAGTCAGTAGTCCGGAGTCACCTAGTGCAG,3980 fluorescence intensity (a.u.)
8,GTGTGACAGTGTGACAGATGTGCATCATGTGGGTCACAAACGGAGTCACCTAGTGCAG,6110 fluorescence intensity (a.u.)
9,AATGATATTGTTGTCCAACATGACGGTATCAGACATTGATCGGAGTCACCTAGTGCAG,3440 fluorescence intensity (a.u.)
10,ACCGTCGGTGTTGGATCGCGCTCCTCTGACGTAAAGTCAGCGGAGTCACCTAGTGCAG,4080 fluorescence intensity (a.u.)
11,GGCATGCCGGTGCCACCTCCTCACCCACGGCACCATCCCACGGAGTCACCTAGTGCAG,4390 fluorescence intensity (a.u.)
12,AAACCAGATGCACGTGGGTACTCGTCATTTCTAATTGGTCCGGAGTCACCTAGTGCAG,5540 fluorescence intensity (a.u.)
13,ATTTGGAGCGTCATGGGCTAGTTCCGCTCGGGACTAGTTCCGGAGTCACCTAGTGCAG,4390 fluorescence intensity (a.u.)
14,TTTGCAAAGCGAGAATTCCACACAGGTTACACCAGTATATCGGAGTCACCTAGTGCAG,3360 fluorescence intensity (a.u.)
15,GAATTGAGTGGTTGGTTAGGTTTCTGAATGGTGGTAAGCACGGAGTCACCTAGTGCAG,3150 fluorescence intensity (a.u.)
16,ATATGAGGTAGATGCATGACTCAACCACTAAACTTAGGACCGGAGTCACCTAGTGCAG,5420 fluorescence intensity (a.u.)
17,AAACAAGTACAAAGCTGCAGTCGCTGTTGATAAAGAGTTACGGAGTCACCTAGTGCAG,19500 fluorescence intensity (a.u.)
18,TAAAAGGCATACCAACTTTCAGTGCCTATGAACTAATCTGCGGAGTCACCTAGTGCAG,31200 fluorescence intensity (a.u.)
19,CTAGTAGTGGCTCTACCACACCTACATCACTTGCCTCGAGCGGAGTCACCTAGTGCAG,3280 fluorescence intensity (a.u.)
20,AACGACCGCCACGTCGCCTCCAATTCATCCCTCCCAGTGGCGGAGTCACCTAGTGCAG,26400 fluorescence intensity (a.u.)
21,GTCAGAGACACAGAAGCAAGCTGCATGCCAGCCTAACCCGCGGAGTCACCTAGTGCAG,6270 fluorescence intensity (a.u.)

row,Sequence,binding signal
1,GGCTAAAATATAATGTATTTTAAGATAACATTTTACACGTCGGAGTCACCTAGTGCAG,3170 fluorescence intensity (a.u.)
2,TTTCCTCTACATAAGTTTCCACGTATACACTCGAGCAATACGGAGTCACCTAGTGCAG,9530 fluorescence intensity (a.u.)
3,CGCTCGTCGCCTCCACTCCGATCGCCGCCGCGCGGCAGGGCGGAGTCACCTAGTGCAG,30600 fluorescence intensity (a.u.)
4,GTTGAATGAGTTTGACTACGTGGCATACACATTGGATATACGGAGTCACCTAGTGCAG,13800 fluorescence intensity (a.u.)
5,TATATATATGGTCCTTCGTGTACATGTTTCCCTGATTTTCCGGAGTCACCTAGTGCAG,3790 fluorescence intensity (a.u.)
6,CTTGGATCCAACGGCCACGGCTCTCTCATCGCCGCGCCCCCGGAGTCACCTAGTGCAG,46100 fluorescence intensity (a.u.)
7,GGTAGCAACTGCAAGGGGCAGTTGGCTGGAGCTCGGTGATCGGAGTCACCTAGTGCAG,4370 fluorescence intensity (a.u.)
8,AATACCTCCTCCTATACGCTATAATTGGCATGTGTCACGTCGGAGTCACCTAGTGCAG,5430 fluorescence intensity (a.u.)
9,GATGCTGACAGTCAGGCAGGCCTCTACATGTGACAAGGCTCGGAGTCACCTAGTGCAG,5560 fluorescence intensity (a.u.)
10,ATGTTCAGATCTCATGATCTCATCATCACAAATCAAGTCCCGGAGTCACCTAGTGCAG,3750 fluorescence intensity (a.u.)
11,TATGTGGTTCTTCGTCATCACACGTTCAGTTCTATCCAAACGGAGTCACCTAGTGCAG,4780 fluorescence intensity (a.u.)
12,TTGTATGTTTGTGGAGTGATATATTACATTTTAATCTATCCGGAGTCACCTAGTGCAG,28000 fluorescence intensity (a.u.)
13,GGCTGAGTTTTCTGTGTGTTGGCATCTTGCAACTGTCGAGCGGAGTCACCTAGTGCAG,4180 fluorescence intensity (a.u.)
14,TGGTGGTCCTTAAACTTATAGGGTTATGTCATATAGGTCTCGGAGTCACCTAGTGCAG,3430 fluorescence intensity (a.u.)
15,AAACAGCTCAAGTTGAGGCCAGGTGGACGTGCAGCCACGCCGGAGTCACCTAGTGCAG,3790 fluorescence intensity (a.u.)
16,AAGTACATCATGACACCGATCTCACTTAACCAACACCGTGCGGAGTCACCTAGTGCAG,4410 fluorescence intensity (a.u.)
17,GCGGCTGTACAACACACGATCCAATGCACCGCGTCGTCACCGGAGTCACCTAGTGCAG,4160 fluorescence intensity (a.u.)
18,TCTTTGTGCTGAACCGAGCCGTCATGGTCACCAGTTCCAGCGGAGTCACCTAGTGCAG,3660 fluorescence intensity (a.u.)
19,CCCATCAACGAGCCCTCGATGACACGTACTCCCTCCATTACGGAGTCACCTAGTGCAG,9840 fluorescence intensity (a.u.)
20,GCAGGCTCGCCTTGCACCACGTAGCCTTGCAGCCGCCACACGGAGTCACCTAGTGCAG,4120 fluorescence intensity (a.u.)
21,CAGGAAAGATGTGCCACGTATACTGAGTTTGACTCGTTCACGGAGTCACCTAGTGCAG,10600 fluorescence intensity (a.u.)

# Some of the entries so far, tab-delimited.
row	Sequence	binding signal
14	TGGTGGTCCTTAAACTTATAGGGTTATGTCATATAGGTCTCGGAGTCACCTAGTGCAG	3430 fluorescence intensity (a.u.)
15	AAACAGCTCAAGTTGAGGCCAGGTGGACGTGCAGCCACGCCGGAGTCACCTAGTGCAG	3790 fluorescence intensity (a.u.)
